{"source": "PubChem BioAssay AID1508597, Cure First – 2020", "purpose": "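Survival screen with siRNA in ovarian cancer cells derived from patients, with or without rucaparib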 (primary screen)", "system": "human ovarian carcinoma lines grown from tumours: OCI-P5x (papillary serous) and OCI-C5x (clear cell)", "knock-down reagent": "siRNA pool against human genes, 1.25 pmol siRNA per well", "duration": "72 h or 96 h, depending on the cell culture", "treatment": "rucaparib 20 µM (about IC30) or vehicle, present until read-out", "read-out": "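Luminescent ATP-based viability assay read 72 or 96 h after transfection, depending on culture, given as normalised percent viability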", "direction": "viability, normalised: higher = more viable cells remaining", "call rule": "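a well counts as a hit if its normalised viability is under 80 percent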", "calls": "active = viability under 80%; inactive = viability 80% or more", "note": "In all, the deposit lists about 2,100 reagents; this is a part drawn at random. 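Calls flag viability under 80% in either arm, not effects specific to rucaparib; the reference for percent is not stated.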 The record does not give: the 100% reference."}
{"gene knocked down":"PXK (PX domain containing serine/threonine kinase like)","rucaparib or vehicle":"Rucaparib","cell line":"OCI-C5x (clear cell)","technical replicate":"1","viability, normalised (%)":74.9,"outcome":"active"}
{"gene knocked down":"PXK (PX domain containing serine/threonine kinase like)","rucaparib or vehicle":"Rucaparib","cell line":"OCI-C5x (clear cell)","technical replicate":"2","viability, normalised (%)":62.2,"outcome":"active"}
{"gene knocked down":"PXK (PX domain containing serine/threonine kinase like)","rucaparib or vehicle":"Rucaparib","cell line":"OCI-C5x (clear cell)","technical replicate":"3","viability, normalised (%)":75.4,"outcome":"active"}
{"gene knocked down":"PXK (PX domain containing serine/threonine kinase like)","rucaparib or vehicle":"Rucaparib","cell line":"OCI-P5x (serous)","technical replicate":"1","viability, normalised (%)":85.6,"outcome":"inactive"}
{"gene knocked down":"PXK (PX domain containing serine/threonine kinase like)","rucaparib or vehicle":"Rucaparib","cell line":"OCI-P5x (serous)","technical replicate":"2","viability, normalised (%)":112,"outcome":"inactive"}
{"gene knocked down":"PXK (PX domain containing serine/threonine kinase like)","rucaparib or vehicle":"Rucaparib","cell line":"OCI-P5x (serous)","technical replicate":"3","viability, normalised (%)":71.9,"outcome":"active"}
{"gene knocked down":"PXK (PX domain containing serine/threonine kinase like)","rucaparib or vehicle":"Vehicle","cell line":"OCI-C5x (clear cell)","technical replicate":"1","viability, normalised (%)":72.7,"outcome":"active"}
{"gene knocked down":"PXK (PX domain containing serine/threonine kinase like)","rucaparib or vehicle":"Vehicle","cell line":"OCI-C5x (clear cell)","technical replicate":"2","viability, normalised (%)":48.3,"outcome":"active"}
{"gene knocked down":"PXK (PX domain containing serine/threonine kinase like)","rucaparib or vehicle":"Vehicle","cell line":"OCI-C5x (clear cell)","technical replicate":"3","viability, normalised (%)":53,"outcome":"active"}
{"gene knocked down":"PXK (PX domain containing serine/threonine kinase like)","rucaparib or vehicle":"Vehicle","cell line":"OCI-P5x (serous)","technical replicate":"1","viability, normalised (%)":80.1,"outcome":"inactive"}
{"gene knocked down":"PXK (PX domain containing serine/threonine kinase like)","rucaparib or vehicle":"Vehicle","cell line":"OCI-P5x (serous)","technical replicate":"2","viability, normalised (%)":65.7,"outcome":"active"}
{"gene knocked down":"PXK (PX domain containing serine/threonine kinase like)","rucaparib or vehicle":"Vehicle","cell line":"OCI-P5x (serous)","technical replicate":"3","viability, normalised (%)":76.7,"outcome":"active"}
{"gene knocked down":"DDX59 (DEAD-box helicase 59)","rucaparib or vehicle":"Rucaparib","cell line":"OCI-C5x (clear cell)","technical replicate":"1","viability, normalised (%)":52.1,"outcome":"active"}
{"gene knocked down":"DDX59 (DEAD-box helicase 59)","rucaparib or vehicle":"Rucaparib","cell line":"OCI-C5x (clear cell)","technical replicate":"2","viability, normalised (%)":47.1,"outcome":"active"}
{"gene knocked down":"DDX59 (DEAD-box helicase 59)","rucaparib or vehicle":"Rucaparib","cell line":"OCI-C5x (clear cell)","technical replicate":"3","viability, normalised (%)":42.4,"outcome":"active"}
{"gene knocked down":"DDX59 (DEAD-box helicase 59)","rucaparib or vehicle":"Rucaparib","cell line":"OCI-P5x (serous)","technical replicate":"1","viability, normalised (%)":68.4,"outcome":"active"}
{"gene knocked down":"DDX59 (DEAD-box helicase 59)","rucaparib or vehicle":"Rucaparib","cell line":"OCI-P5x (serous)","technical replicate":"2","viability, normalised (%)":70.3,"outcome":"active"}
{"gene knocked down":"DDX59 (DEAD-box helicase 59)","rucaparib or vehicle":"Rucaparib","cell line":"OCI-P5x (serous)","technical replicate":"3","viability, normalised (%)":59.4,"outcome":"active"}
{"gene knocked down":"DDX59 (DEAD-box helicase 59)","rucaparib or vehicle":"Vehicle","cell line":"OCI-C5x (clear cell)","technical replicate":"1","viability, normalised (%)":40.6,"outcome":"active"}
{"gene knocked down":"DDX59 (DEAD-box helicase 59)","rucaparib or vehicle":"Vehicle","cell line":"OCI-C5x (clear cell)","technical replicate":"2","viability, normalised (%)":40.8,"outcome":"active"}
{"gene knocked down":"DDX59 (DEAD-box helicase 59)","rucaparib or vehicle":"Vehicle","cell line":"OCI-C5x (clear cell)","technical replicate":"3","viability, normalised (%)":46.5,"outcome":"active"}
{"gene knocked down":"DDX59 (DEAD-box helicase 59)","rucaparib or vehicle":"Vehicle","cell line":"OCI-P5x (serous)","technical replicate":"1","viability, normalised (%)":70.9,"outcome":"active"}
{"gene knocked down":"DDX59 (DEAD-box helicase 59)","rucaparib or vehicle":"Vehicle","cell line":"OCI-P5x (serous)","technical replicate":"2","viability, normalised (%)":70.5,"outcome":"active"}
{"gene knocked down":"DDX59 (DEAD-box helicase 59)","rucaparib or vehicle":"Vehicle","cell line":"OCI-P5x (serous)","technical replicate":"3","viability, normalised (%)":57.9,"outcome":"active"}

5 entries from above, ordered by “viability, normalised (%)”, ascending.
{"gene knocked down":"DDX59 (DEAD-box helicase 59)","rucaparib or vehicle":"Rucaparib","cell line":"OCI-C5x (clear cell)","technical replicate":"3","viability, normalised (%)":42.4,"outcome":"active"}
{"gene knocked down":"DDX59 (DEAD-box helicase 59)","rucaparib or vehicle":"Rucaparib","cell line":"OCI-C5x (clear cell)","technical replicate":"2","viability, normalised (%)":47.1,"outcome":"active"}
{"gene knocked down":"DDX59 (DEAD-box helicase 59)","rucaparib or vehicle":"Rucaparib","cell line":"OCI-P5x (serous)","technical replicate":"3","viability, normalised (%)":59.4,"outcome":"active"}
{"gene knocked down":"DDX59 (DEAD-box helicase 59)","rucaparib or vehicle":"Rucaparib","cell line":"OCI-P5x (serous)","technical replicate":"1","viability, normalised (%)":68.4,"outcome":"active"}
{"gene knocked down":"DDX59 (DEAD-box helicase 59)","rucaparib or vehicle":"Rucaparib","cell line":"OCI-P5x (serous)","technical replicate":"2","viability, normalised (%)":70.3,"outcome":"active"}

Additional reagents:
{"gene knocked down":"HECTD3 (HECT domain E3 ubiquitin protein ligase 3)","rucaparib or vehicle":"Rucaparib","cell line":"OCI-C5x (clear cell)","technical replicate":"1","viability, normalised (%)":65.8,"outcome":"active"}
{"gene knocked down":"HECTD3 (HECT domain E3 ubiquitin protein ligase 3)","rucaparib or vehicle":"Rucaparib","cell line":"OCI-C5x (clear cell)","technical replicate":"2","viability, normalised (%)":88.2,"outcome":"inactive"}
{"gene knocked down":"HECTD3 (HECT domain E3 ubiquitin protein ligase 3)","rucaparib or vehicle":"Rucaparib","cell line":"OCI-C5x (clear cell)","technical replicate":"3","viability, normalised (%)":76.8,"outcome":"active"}
{"gene knocked down":"HECTD3 (HECT domain E3 ubiquitin protein ligase 3)","rucaparib or vehicle":"Rucaparib","cell line":"OCI-P5x (serous)","technical replicate":"1","viability, normalised (%)":85.5,"outcome":"inactive"}
{"gene knocked down":"HECTD3 (HECT domain E3 ubiquitin protein ligase 3)","rucaparib or vehicle":"Rucaparib","cell line":"OCI-P5x (serous)","technical replicate":"2","viability, normalised (%)":92.5,"outcome":"inactive"}
{"gene knocked down":"HECTD3 (HECT domain E3 ubiquitin protein ligase 3)","rucaparib or vehicle":"Rucaparib","cell line":"OCI-P5x (serous)","technical replicate":"3","viability, normalised (%)":87.6,"outcome":"inactive"}
{"gene knocked down":"HECTD3 (HECT domain E3 ubiquitin protein ligase 3)","rucaparib or vehicle":"Vehicle","cell line":"OCI-C5x (clear cell)","technical replicate":"1","viability, normalised (%)":60.6,"outcome":"active"}
{"gene knocked down":"HECTD3 (HECT domain E3 ubiquitin protein ligase 3)","rucaparib or vehicle":"Vehicle","cell line":"OCI-C5x (clear cell)","technical replicate":"2","viability, normalised (%)":73.9,"outcome":"active"}
{"gene knocked down":"HECTD3 (HECT domain E3 ubiquitin protein ligase 3)","rucaparib or vehicle":"Vehicle","cell line":"OCI-C5x (clear cell)","technical replicate":"3","viability, normalised (%)":66,"outcome":"active"}
{"gene knocked down":"HECTD3 (HECT domain E3 ubiquitin protein ligase 3)","rucaparib or vehicle":"Vehicle","cell line":"OCI-P5x (serous)","technical replicate":"1","viability, normalised (%)":58.3,"outcome":"active"}
{"gene knocked down":"HECTD3 (HECT domain E3 ubiquitin protein ligase 3)","rucaparib or vehicle":"Vehicle","cell line":"OCI-P5x (serous)","technical replicate":"2","viability, normalised (%)":38.6,"outcome":"active"}
{"gene knocked down":"HECTD3 (HECT domain E3 ubiquitin protein ligase 3)","rucaparib or vehicle":"Vehicle","cell line":"OCI-P5x (serous)","technical replicate":"3","viability, normalised (%)":78.4,"outcome":"active"}
{"gene knocked down":"DYRK3 (dual specificity tyrosine phosphorylation regulated kinase 3)","rucaparib or vehicle":"Rucaparib","cell line":"OCI-C5x (clear cell)","technical replicate":"1","viability, normalised (%)":54.8,"outcome":"active"}
{"gene knocked down":"DYRK3 (dual specificity tyrosine phosphorylation regulated kinase 3)","rucaparib or vehicle":"Rucaparib","cell line":"OCI-C5x (clear cell)","technical replicate":"2","viability, normalised (%)":64.5,"outcome":"active"}
{"gene knocked down":"DYRK3 (dual specificity tyrosine phosphorylation regulated kinase 3)","rucaparib or vehicle":"Rucaparib","cell line":"OCI-C5x (clear cell)","technical replicate":"3","viability, normalised (%)":59.2,"outcome":"active"}
{"gene knocked down":"DYRK3 (dual specificity tyrosine phosphorylation regulated kinase 3)","rucaparib or vehicle":"Rucaparib","cell line":"OCI-P5x (serous)","technical replicate":"1","viability, normalised (%)":97.5,"outcome":"inactive"}
{"gene knocked down":"DYRK3 (dual specificity tyrosine phosphorylation regulated kinase 3)","rucaparib or vehicle":"Rucaparib","cell line":"OCI-P5x (serous)","technical replicate":"2","viability, normalised (%)":77.3,"outcome":"active"}
{"gene knocked down":"DYRK3 (dual specificity tyrosine phosphorylation regulated kinase 3)","rucaparib or vehicle":"Rucaparib","cell line":"OCI-P5x (serous)","technical replicate":"3","viability, normalised (%)":91.8,"outcome":"inactive"}
{"gene knocked down":"DYRK3 (dual specificity tyrosine phosphorylation regulated kinase 3)","rucaparib or vehicle":"Vehicle","cell line":"OCI-C5x (clear cell)","technical replicate":"1","viability, normalised (%)":71.7,"outcome":"active"}
{"gene knocked down":"DYRK3 (dual specificity tyrosine phosphorylation regulated kinase 3)","rucaparib or vehicle":"Vehicle","cell line":"OCI-C5x (clear cell)","technical replicate":"2","viability, normalised (%)":43.5,"outcome":"active"}
{"gene knocked down":"DYRK3 (dual specificity tyrosine phosphorylation regulated kinase 3)","rucaparib or vehicle":"Vehicle","cell line":"OCI-C5x (clear cell)","technical replicate":"3","viability, normalised (%)":69.3,"outcome":"active"}
{"gene knocked down":"DYRK3 (dual specificity tyrosine phosphorylation regulated kinase 3)","rucaparib or vehicle":"Vehicle","cell line":"OCI-P5x (serous)","technical replicate":"1","viability, normalised (%)":89.5,"outcome":"inactive"}
{"gene knocked down":"DYRK3 (dual specificity tyrosine phosphorylation regulated kinase 3)","rucaparib or vehicle":"Vehicle","cell line":"OCI-P5x (serous)","technical replicate":"2","viability, normalised (%)":87.5,"outcome":"inactive"}
{"gene knocked down":"DYRK3 (dual specificity tyrosine phosphorylation regulated kinase 3)","rucaparib or vehicle":"Vehicle","cell line":"OCI-P5x (serous)","technical replicate":"3","viability, normalised (%)":97.2,"outcome":"inactive"}
